According to publication PMC6541591:
No constants are given. Whether binding was seen depends on the method and setting. In cells and extracts the contact can be indirect. Some entries that bind do so weakly or less than the wild type.

Protein sequences, listed by entry. Tags and fused reporters are not part of them.
UniProt Q8N9U0: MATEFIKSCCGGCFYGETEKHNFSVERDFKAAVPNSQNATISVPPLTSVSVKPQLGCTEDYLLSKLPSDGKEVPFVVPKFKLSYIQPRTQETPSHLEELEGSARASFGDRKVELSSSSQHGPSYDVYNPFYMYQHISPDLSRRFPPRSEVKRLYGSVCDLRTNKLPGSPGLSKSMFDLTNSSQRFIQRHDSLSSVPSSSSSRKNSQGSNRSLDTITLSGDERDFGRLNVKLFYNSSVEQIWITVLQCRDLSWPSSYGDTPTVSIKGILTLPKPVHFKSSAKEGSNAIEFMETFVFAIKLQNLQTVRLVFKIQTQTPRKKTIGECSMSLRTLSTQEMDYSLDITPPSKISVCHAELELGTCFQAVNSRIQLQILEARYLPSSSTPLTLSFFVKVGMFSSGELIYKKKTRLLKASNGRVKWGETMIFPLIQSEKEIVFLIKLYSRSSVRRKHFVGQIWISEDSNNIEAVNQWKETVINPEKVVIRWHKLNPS

Biological target: TC2N (human) (UniProt Q8N9U0)
Test: co-IP; lysates of stably transfected MCF7 and MDA-MB-231 cells, IP with Flag antibody, WB with TC2N and EBP1 antibodies

B1: EBP1 (protein, UniProt Q9UQ80 1-394)
chain: MSGEDEQQEQTIAEDLVVTKYKMGGDIANRVLRSLVEASSSGVSVLSLCEKGDAMIMEETGKIFKKEKEMKKGIAFPTSISVNNCVCHFSPLKSDQDYILKEGDLVKIDLGVHVDGFIANVAHTFVVDVAQGTQVTGRKADVIKAAHLCAEAALRLVKPGNQNTQVTEAWNKVAHSFNCTPIEGMLSHQLKQHVIDGEKTIIQNPTDQQKKDHEKAEFEVHEVYAVDVLVSSGEGKAKDAGQRTTIYKRDPSKQYGLKMKTSRAFFSEVERRFDAMPFTLRAFEDEKKARMGVVECAKHELLQPFNVLYEKEGEFVAQFKFTVLLMPNGPMRITSGPFEPDLYKSEMEVQDAELKALLQSSASRKTQKKKKKKASKTAENATSGETLEENEAGD
For B1, the binding was “binds”.
